Some of the results follow. Further columns of the screen follow, without active or inactive calls. Most of these compounds were active or inconclusive in the main read-out, so they are no random draw. Words in brackets tell the shape of the fitted curve; partial curves, single points and poor fits give uncertain potencies.
Experiment: qHTS Assay for Lipid Storage Modulators in Drosophila S3 Cells;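 on cell number change: cells counted by Cell Tracker Red CMTPX staining in the red channel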
Conditions: BODIPY lipid droplet fluorescence, 18-24 h; for cell number change: measured here: cell count max response, cells fed with added oleic acid
Method in brief: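 Drosophila S3 cells loaded with oleic acid (400 uM, as added) and compounds at several concentrations; lipid droplets imaged by 488-nm laser-scanning cytometry, 500–530 nm intensity and object ratio to cell channel. Percent activity normalized to 20 uM Triacsin C.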

[1] = measured here: lipid fluorescence (Fed channel) AC50, cells fed with added oleic acid
[2] = measured here: cell number channel AC50, cells fed with added oleic acid

Compound	cell number change [%]	AC50 [1]	AC50 [2]
Cn1ccc2cc(-c3ccc4ncnc(NCc5cccs5)c4c3)ccc21	-14	32.6 µM [falling, single point]	
CC(C)N1CCC2(CC1)Oc1ccc(Br)cc1C1CC(c3cccnc3)=NN12 (stereo not given)	-2.43	0.092 µM [rising, full curve, poor fit]	
COc1ccccc1CNC(=O)Cn1c(=O)oc2cc(Cl)ccc21	23.8	6.51 µM [rising, single point]	
CC1(CC(=O)N/N=C/c2cc([N+](=O)[O-])c(O)cc2O)OCCO1	-37.1	0.00461 µM [falling, full curve, poor fit]	0.13 µM [falling, full curve]
COc1ccc(S(=O)(=O)N2CCN(c3c(C)cccc3C)CC2)cc1OC	-24.5		
COCc1cc(C)nc2sc(C(=O)N3CCN(c4ccccc4)CC3)c(N)c12	31.6	0.461 µM [rising, single point]	0.58 µM [rising, single point]
CCOC(=O)CON1C(=O)C(=O)N(OCC(=O)OCC)[C@H]2CCCC[C@H]21	-27.2	29.1 µM [falling, single point]	
O=c1ccc2[n+]([O-])c3ccc(O)cc3oc-2c1	-65.6	3.66 µM [falling, full curve]	4.61 µM [falling, full curve]
Cc1ccc(N(CC(=O)NC2CCCC2)C(=O)CCC(=O)Nc2nccs2)c(C)c1	-6.94		
CCN(CCCNC(=O)c1nn(C)c2c1CS(=O)(=O)c1ccccc1-2)Cc1ccccc1	31.6	25.9 µM [rising, single point]	29.1 µM [rising, single point]
COc1ccc(C2CCCN2C(=S)Nc2ccccc2C)cc1OC (stereo not given)	-2.15	0.651 µM [falling, single point]	0.651 µM [falling, single point]
COc1ccccc1OCC(=O)Nc1cccc(-c2nc3ccccc3o2)c1	-59.1	1.03 µM [rising, partial curve]	29.1 µM [falling, single point]
COc1ccc(-c2ccc(=O)n(CC(=O)NC3CCc4ccccc43)n2)cc1OC (stereo not given)	3.73	0.92 µM [rising, full curve, poor fit]	
Cc1cc(C)nc(NS(=O)(=O)c2ccc(N/C=C\C(=O)c3cccs3)cc2)n1	139	29.1 µM [rising, single point]	29.1 µM [rising, single point]
O=C(O)C1C2CCC(C2)C1C(=O)NCCc1cccc(Cl)c1 (stereo not given)	1.38		
CCOc1ccccc1CNC(=O)C1CCC(=O)N1C(C)C (stereo not given)	-14.2	1.46 µM [falling, full curve, poor fit]	
Cc1c(NS(=O)(=O)c2ccc(NC(=O)CCC(=O)O)cc2)c(=O)n(-c2ccccc2)n1C	-25.1	0.461 µM [falling, full curve]	
CCO/N=C(/C)c1c(O)cc(C(C)(C)C)n(-c2ccccc2)c1=O	-12.5	29.1 µM [falling, single point]	0.517 µM [rising, single point]
CNC(=O)c1ccccc1NC(=O)c1cccc(S(=O)(=O)N2CCC(C)CC2)c1	-13.7	0.0411 µM [rising, full curve, poor fit]	
COc1ccc(-n2c(N)c(C(=O)NCc3ccco3)c3nc4ccccc4nc32)cc1OC	-41.2	18.4 µM [falling, single point]	29.1 µM [falling, single point]
C/C(=N/Nc1ccccc1[N+](=O)[O-])c1ccc(C)c([N+](=O)[O-])c1	-36.1	29.1 µM [falling, single point]	18.4 µM [falling, partial curve, poor fit]
O=C(O)CNS(=O)(=O)c1ccc2c(c1)CCCC2	-0.683		
O=C(CSc1nncs1)Nc1nccs1	21	32.6 µM [falling, single point]	
CCOc1ccc(NC(=S)N(CCOC)C2CCN(C(C)C)CC2)cc1	-14.9	0.116 µM [falling, full curve, poor fit]	6.51 µM [falling, single point]
CCCCSCc1[nH]c(=O)[nH]c1C(=O)CCCCC(=O)OCC	39.2		5.8 µM [rising, partial curve]
COc1cc(Cl)cc(/C=C/c2ccc3ccccc3n2)c1OC(C)=O	54.7	4.61 µM [rising, partial curve]	1.3 µM [rising, full curve]
C/C(=N\O)C(=O)NCCCNCCCN(C)C	-36.3	16.4 µM [falling, single point]	0.366 µM [falling, full curve, poor fit]

Reformatted: 3 of the compounds above.
Compound | cell number change [%] | AC50 [1] | AC50 [2]
CCOc1ccc(NC(=S)N(CCOC)C2CCN(C(C)C)CC2)cc1 | -14.9 | 0.116 µM [falling, full curve, poor fit] | 6.51 µM [falling, single point]
CCCCSCc1[nH]c(=O)[nH]c1C(=O)CCCCC(=O)OCC | 39.2 |  | 5.8 µM [rising, partial curve]
COc1cc(Cl)cc(/C=C/c2ccc3ccccc3n2)c1OC(C)=O | 54.7 | 4.61 µM [rising, partial curve] | 1.3 µM [rising, full curve]

The results go on:

Compound	cell number change [%]	AC50 [1]	AC50 [2]
CC(C)(C)n1ncc2c(=O)n(Cc3ccc(Cl)cc3)cnc21		0.103 µM [rising, full curve, poor fit]	
CC(NC(=O)CN1C(=O)NC(Cc2ccccc2)(Cc2ccccc2)C1=O)C12CC3CC(CC(C3)C1)C2 (stereo not given)	5.94	1.3 µM [falling, full curve, poor fit]	
COc1ccc(C2CC(c3c(-c4ccccc4)c4cc(Cl)ccc4[nH]c3=O)=NN2S(C)(=O)=O)cc1OC (stereo not given)	-81.9	5.8 µM [rising, single point]	1.84 µM [rising, partial curve]
COc1ccc2oc(C(=O)OCC(=O)NC3CCCCC3)c(C)c2c1	11.4		
COc1ccc(S(=O)(=O)NCC2CCC(C(=O)NCCC(C)C)CC2)cc1 (stereo not given)	25.9	20.6 µM [rising, single point]	
COc1cc(/C=N\NC(=O)c2ccccc2F)ccc1Oc1ccc([N+](=O)[O-])cn1	16.4	6.51 µM [rising, single point]	
COC(=O)C1=C(C)NC(=S)NC1c1ccc(-c2cccc(Cl)c2)o1 (stereo not given)	19	29.1 µM [falling, single point]	0.00411 µM [rising, partial curve, poor fit]
CC(Oc1ccc(F)cc1)C(=O)Nc1cc(Cl)ccc1-n1cncn1 (stereo not given)	34	18.4 µM [rising, single point]	5.8 µM [rising, partial curve]
CC1(C)CC(=O)C2=C(C1)N(c1ccccc1C#N)C(N)=C(C#N)C2c1cccs1 (stereo not given)	18.8	2.91 µM [rising, full curve]	0.651 µM [rising, partial curve, poor fit]
Cc1cccc(NC(=O)CSc2ncnc3nc[nH]c23)c1C		25.9 µM [rising, partial curve, poor fit]	
CCCC(O)(CCN(C)C)c1ccc(OC)cc1 (stereo not given)	-30.9	6.51 µM [falling, partial curve]	0.0164 µM [falling, full curve, poor fit]
Cc1ccc(CN2CCC(C(=O)Nc3cccc(-c4cccc(F)c4)c3)CC2)o1		1.16 µM [rising, full curve]	
Cc1ccc(S(=O)(=O)NC(C)CCc2ccccc2)cc1C(N)=O (stereo not given)		1.16 µM [falling, partial curve, poor fit]	
CCOC(=O)CCC(NC(=O)c1ccc(NCN2C(=O)CCC2=O)cc1)C(=O)OCC (stereo not given)	-17.5	0.58 µM [falling, single point]	
Cc1cc(NS(=O)(=O)c2ccc(NC(=O)c3cc4c(=O)n5ccccc5nc4s3)cc2)nc(C)n1	-23.3	0.326 µM [falling, partial curve, poor fit]	
COc1cccc(/C=N/NC(=O)c2cc(-c3cccn3C)n[nH]2)c1O	-30.2	14.6 µM [falling, partial curve]	4.11 µM [falling, partial curve]
COc1ccccc1N1CCN(C(C)C(=O)Nc2ccc(S(=O)(=O)N3CCOCC3)cc2)CC1 (stereo not given)	42.8		3.66 µM [rising, full curve]
Cn1c(C(=O)NCc2cccnc2)cc2sc(Cl)cc21	-3.09	0.58 µM [rising, partial curve]	
CCN(CC)c1nc(Nc2ccccc2)nc(Oc2ccc(=O)[nH]n2)n1		0.259 µM [rising, partial curve, poor fit]	
CCN(CC)CCNC(=O)c1cn(CC)c2ccc(S(=O)(=O)N3CCOCC3)cc2c1=O		29.1 µM [rising, single point]	
O=C(Nc1ccc(O)cc1C(=O)O)c1ccc(NC(=O)c2ccco2)cc1	9.17		
CCN1CCN(C(=O)c2cc3c(=O)oc4ccc(C)cc4c3s2)CC1	7.42	6.51 µM [rising, single point]	
COCCn1c(SCC(=O)NC(C)c2ccccc2)nc2ccccc21 (stereo not given)	6.41	6.51 µM [rising, single point]	
O=C(/C=C/c1ccc2c(c1)OCO2)NCc1cn2cc(Cl)ccc2n1		6.51 µM [falling, single point]	
Cc1ccc(CCNS(=O)(=O)c2ccc3c(c2)N(C)CCO3)cc1	62	29.1 µM [rising, single point]	29.1 µM [rising, single point]
CCOC(=O)N1CCN(C(=O)COc2ccc3ccccc3c2Br)CC1	10.1	6.51 µM [rising, partial curve, poor fit]	
C#Cc1ccc([C@@H]2C=C(C(=O)NCc3nc4ccccc4[nH]3)O[C@H](OCC)[C@H]2CCCO)cc1	25.9	2.06 µM [rising, partial curve]	

Source: PubChem BioAssay AID2685 (National Center for Advancing Translational Sciences (NCATS), 2010)
